{"source": "patent US20110028495A1", "about": "“THE USE OF 6-HALOGENO-[1,2,4]-TRIAZOLO-[1,5-a]-PYRIMIDINE COMPOUNDS FOR COMBATING PESTS IN AND ON ANIMALS” (priority 2007, published 2011)", "note": "Some results were stated once for a whole list of compounds, not compound by compound.", "data": [{"test_system": "Barberpole worm (Haemonchus contortus)", "assay": "Activity against barberpole worm (L1 larval motility)", "conditions": "L1 H. contortus", "units": {"MIC 90 (lowest dose with 90% reduction in motility)": "ppm"}, "values": [{"smiles": "CCc1nc2ncnn2c(NC(C)c2ccc(OC(F)(F)F)cc2)c1Cl", "note": "(racemic) [C.I.28]", "MIC 90 (lowest dose with 90% reduction in motility)": "< 1"}, {"smiles": "CCc1nc2ncnn2c(NC(C)c2ccc(-c3ccccc3)cc2)c1Cl", "note": "(racemic) [C.I.59]", "MIC 90 (lowest dose with 90% reduction in motility)": "< 1"}, {"smiles": "Cc1nc2ncnn2c(NCc2ccc(Oc3ccc(Cl)cc3)cc2)c1Cl", "note": "[C.I.10]", "MIC 90 (lowest dose with 90% reduction in motility)": "< 1"}, {"smiles": "Cc1nc2ncnn2c(NCc2ccc(Oc3ccc(Br)cc3)cc2)c1Cl", "note": "[C.I.11]", "MIC 90 (lowest dose with 90% reduction in motility)": "< 1"}, {"smiles": "Cc1nc2ncnn2c(NCc2ccc(Oc3ccc(Cl)c(Cl)c3)cc2)c1Cl", "note": "[C.I.12]", "MIC 90 (lowest dose with 90% reduction in motility)": "< 1"}, {"smiles": "CCc1nc2ncnn2c(N[C@@H](C)c2ccc(Br)cc2)c1Cl", "note": "[C.I.23]", "MIC 90 (lowest dose with 90% reduction in motility)": "< 1"}, {"smiles": "CCc1nc2ncnn2c(N[C@@H](C)c2ccc(OC(F)(F)F)cc2)c1Cl", "note": "[C.I.29]", "MIC 90 (lowest dose with 90% reduction in motility)": "< 1"}, {"smiles": "CCc1nc2ncnn2c(NCCc2ccc(OC(F)(F)F)cc2)c1Cl", "note": "[C.I.32]", "MIC 90 (lowest dose with 90% reduction in motility)": "< 1"}, {"smiles": "CCC(Nc1c(Cl)c(C)nc2ncnn12)c1ccc(OC(F)(F)C(F)C(F)(F)F)cc1", "note": "(centres unmarked) [C.I.43]", "MIC 90 (lowest dose with 90% reduction in motility)": "< 1"}, {"smiles": "CCc1nc2ncnn2c(N[C@H]2CC[C@@H](CCC(F)(F)F)CC2)c1Cl", "note": "[C.I.45]", "MIC 90 (lowest dose with 90% reduction in motility)": "< 1"}, {"smiles": "CCc1nc2nc([S+](C)[O-])nn2c(N[C@@H](C)c2ccc(C)cc2)c1Cl", "note": "(some centres unmarked) [C.I.56]", "MIC 90 (lowest dose with 90% reduction in motility)": "< 1"}]}]}
